Source: publication PMC12000434 (2025)
These are yes or no findings as the source states them, for the method shown. In cells and extracts the contact can be indirect. Some results given as binding are weak or reduced against the parent protein; the word gives no strength.

By UniProt entry, the sequences of proteins in these tests, tags left out. Where a name states a change or a piece, a line headed by the entry shows the natural chain unless it says otherwise. Chains listed by the source or under a name are the forms on record and can include a tag or linker.
UniProt P60520: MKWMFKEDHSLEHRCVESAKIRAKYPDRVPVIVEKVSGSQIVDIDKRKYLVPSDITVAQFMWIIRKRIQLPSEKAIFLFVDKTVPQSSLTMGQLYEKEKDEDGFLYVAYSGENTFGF
UniProt O95166: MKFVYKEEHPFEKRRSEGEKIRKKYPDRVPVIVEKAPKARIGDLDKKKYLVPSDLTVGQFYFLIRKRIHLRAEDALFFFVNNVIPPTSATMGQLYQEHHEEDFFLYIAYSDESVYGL
FLAG-NDP52^GE (Q13137, form named): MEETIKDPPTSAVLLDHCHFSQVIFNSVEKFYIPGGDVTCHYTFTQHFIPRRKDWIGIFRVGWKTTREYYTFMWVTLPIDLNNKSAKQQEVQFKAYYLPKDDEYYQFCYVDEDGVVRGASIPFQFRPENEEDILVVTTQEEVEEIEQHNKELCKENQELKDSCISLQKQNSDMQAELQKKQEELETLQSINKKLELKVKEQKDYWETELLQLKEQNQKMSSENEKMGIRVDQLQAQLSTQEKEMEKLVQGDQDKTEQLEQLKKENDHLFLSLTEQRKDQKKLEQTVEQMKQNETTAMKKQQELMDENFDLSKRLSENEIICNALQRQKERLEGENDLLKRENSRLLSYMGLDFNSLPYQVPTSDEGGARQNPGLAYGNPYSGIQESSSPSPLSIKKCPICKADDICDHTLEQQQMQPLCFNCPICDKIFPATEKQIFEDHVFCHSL

Legend:
GFP-GABARAPL2 = GFP-GABARAPL2 (UniProt P60520); assay: co-IP; SH-SY5Y cells overexpressing GABARAPs with NDP52^WT or NDP52^GE (Supplementary Fig. S1A); direction not told
GFP-GABARAP = GFP-GABARAP (UniProt O95166); assay: as above
HA-LC3A = HA-LC3A (UniProt Q9H492); assay: co-IP; SH-SY5Y cells overexpressing LC3A or LC3B with NDP52^WT or NDP52^GE (Supplementary Fig. S1B); direction not told

Measured: binding

FLAG-NDP52^GE (from UniProt Q13137 1-446)
binds weakly: all assays above

FLAG-NDP52^WT (from UniProt Q13137 1-446)
binds weakly: all assays above
